Results on one substance are retold here after patent US20120316105A1 (priority 2011, published 2012).

A short description of this data set: general procedure: Fmoc solid-phase peptide synthesis; 2-chlorotrityl chloride (CTC); DIC/HOBt. The note with it: late stage modification step, sulfate salt.

On to “H-Dab(Boc)-Thr(tBu)-Dap(Boc)-cyclo[Dab-Dab(Boc)-DPhe-Leu-Dab(Boc)-Dab(Boc)-Thr(tBu)]”, for which the step yield (TFA salt) came out at 94%. Moreover, the “crude HPLC purity” value (UV220, TFA salt) is 78.7%.
